From PubChem BioAssay AID493014 (National Center for Advancing Translational Sciences (NCATS), 2011)
Some of the results follow. These are further read-outs of the screen, such as a control signal, another cell line or another target. No call is given for them. Compounds called inactive in the main read-out are mostly missing here. The note in brackets gives the kind of curve behind each potency; many fits are weak.

Assay: qHTS Assay to Find Inhibitors of Chronic Active B-Cell Receptor Signaling
Settings: ABC-DLBCL IkBa-CBG/CBR reporter, luminescence ratio (green luciferase fused to IkBa over red control in TMD8 lymphoma cells), 4 h
Outline: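 Compounds up to 46 uM were incubated four hours with TMD8 cells whose green CBG68 luciferase is fused to IkappaBalpha; red CBR luminescence normalised the signal, and concentration-effect curves were fitted to fusion, red and ratio data.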

[1] = measured here: CBR red luminescence, cell number
[2] = measured here: IkBa-CBG green luminescence

Compound	AC50 [1]	AC50 [2]
CCOc1ccc(NC(=O)CCC(=O)NNC(=O)Nc2ccc(Cl)cc2)cc1	2.51 µM [rising, partial curve]	
COc1ccc(S(=O)(=O)Cc2ccc(C(=O)N3CCN(c4cccc(C)c4)C(C)C3)o2)cc1 (centres undefined)	29.1 µM [rising, single point]	
CC[C@H]1C(c2ccc(F)cc2)=NN(c2ccccc2)[C@@H]1CO	29.1 µM [falling, single point]	
COCCSc1ccccc1C(=O)N1CCOCC1	25.9 µM [rising, single point]	
Cc1ccc(C2=NS(=O)(=O)N(C)C(C(=O)NCc3ccc(F)cc3)=C2)cc1	15.8 µM [falling, single point]	
COC(=O)c1ccc(NC(=O)Nc2ccc(OC)cc2)cc1	10 µM [falling, partial curve, poor fit]	
CCOc1cc(/C=C/C(=O)c2ccc(C)cc2)ccc1OCC(=O)N(C)C	10.3 µM [falling, partial curve, poor fit]	
CC(C)C(=O)Nc1ccc(NC(=O)c2ccccn2)cn1	25.1 µM [falling, single point]	
CCOc1ccc2nc(N3C(=O)CNC3=S)sc2c1	3.98 µM [rising, partial curve, poor fit]	7.08 µM [falling, partial curve]
COCCN(C(=O)c1ccco1)c1nc(-c2ccccc2)cs1	3.16 µM [rising, partial curve, poor fit]	
Cc1ccc(C)c(CSc2nnc(CCN)o2)c1	23.1 µM [rising, single point]	
O=C1N=c2ccccc2=C1c1[nH]c(=S)[nH]c1O	5.8 µM [falling, partial curve, poor fit]	
CCN(CC(=O)Nc1sc2c(c1C#N)CCC(C)C2)Cc1nc2ccccc2c(=O)[nH]1 (centres undefined)	20 µM [rising, partial curve, poor fit]	
COC(=O)c1ccccc1NC(=O)C1CCCO1 (centres undefined)	32.6 µM [rising, single point]	
Cn1nnc2c(NCc3ccccc3Cl)ncnc21	14.1 µM [falling, single point]	
COc1ccccc1-n1cnc2cc(NS(=O)(=O)c3ccccc3)ccc21	29.1 µM [falling, single point]	
Cc1cc(OCc2cc(C(=O)N3CCN(CC4CC4)CC3)no2)cc(C)c1Cl	22.4 µM [falling, single point]	
COc1ccc(C)cc1NC(=O)C(OC(=O)c1ccc(Cl)c(S(=O)(=O)N(C)c2ccccc2)c1)c1ccccc1 (centres undefined)	5.8 µM [falling, partial curve]	
Cc1ccc(C2CC(=O)Oc3cc(C)c(Br)c(C)c32)cc1 (centres undefined)	29.1 µM [rising, single point]	
COc1cccc(NC(=O)c2ccc(S(=O)(=O)N(C)C)cc2)c1	12.6 µM [falling, partial curve, poor fit]	
CC(NC(=O)c1nn(C)c2c1CS(=O)(=O)c1ccccc1-2)c1ccccc1 (centres undefined)	1.12 µM [rising, partial curve, poor fit]	

Single records, from the list above:
CC(C)C(=O)Nc1ccc(NC(=O)c2ccccn2)cn1 is entered as AC50 [1]: 25.1 µM [falling, single point]
CCOc1ccc(NC(=O)CCC(=O)NNC(=O)Nc2ccc(Cl)cc2)cc1 is entered as AC50 [1]: 2.51 µM [rising, partial curve]
Cc1cc(OCc2cc(C(=O)N3CCN(CC4CC4)CC3)no2)cc(C)c1Cl is entered as AC50 [1]: 22.4 µM [falling, single point]

More compounds

Compound	AC50 [1]	AC50 [2]
O=C(NCc1ccc(Cl)cc1)C(=O)NCC1OCCN1C(=O)c1cccs1 (centres undefined)	25.9 µM [rising, partial curve, poor fit]	
CS(=O)(=O)c1ncc(Cl)c(C(=O)Nc2ccc(N3CCOCC3)cc2)n1	5.17 µM [falling, full curve, poor fit]	6.51 µM [rising, partial curve, poor fit]
O=C(COc1ccc(Cl)cc1)NCCSc1ccccc1	5.8 µM [rising, full curve, poor fit]	
CCc1nnc(NC(=O)/C=C/c2ccco2)s1	18.4 µM [falling, partial curve]	
COc1ccccc1NS(=O)(=O)c1cc(NC(=O)c2cccc(S(=O)(=O)N(C)C)c2)ccc1N1CCOCC1	4.11 µM [rising, full curve, poor fit]	
CCC1Sc2ccccc2N(CC(=O)NCCC(C)C)C1=O (centres undefined)	35.5 µM [falling, partial curve, poor fit]	
COC(=O)c1cccc(Oc2cccc(Cl)n2)c1	12.6 µM [rising, partial curve, poor fit]	
CN(CC(=O)NC1CCCCC1)S(=O)(=O)c1cccc2nsnc12	35.5 µM [falling, single point]	
O=C(O)C1CCC(CNS(=O)(=O)c2ccccc2)CC1 (centres undefined)	12.6 µM [rising, single point]	
CSc1ncccc1-c1nc2ccccc2[nH]1	0.461 µM [falling, full curve]	
Cc1nn(C)c(C)c1NC(=O)Nc1ccc(Cl)c(Cl)c1	17.8 µM [rising, partial curve, poor fit]	
CCOC(=O)COc1ccc(S(=O)(=O)Nc2ccc(C)cc2)cc1	29.1 µM [falling, single point]	
Cc1cccc(N=C2C(=O)Nc3c(Cl)cccc32)c1	10 µM [rising, partial curve, poor fit]	
O=c1oc2ccccc2c(O)c1CN1CCCCC1	0.282 µM [falling, full curve, poor fit]	
CCCc1nc2oc3c(NCCCN(C)C)ncnc3c2c2c1CCCC2	20 µM [falling, partial curve]	12.6 µM [rising, partial curve, poor fit]
Cc1ccccc1OCc1nnc(SCCN2CCCC2)n1-c1ccccc1	0.631 µM [falling, full curve, poor fit]	
O=C(Oc1ccc2cc(Br)ccc2c1)c1cccnc1	2.24 µM [rising, partial curve, poor fit]	
CC(SCc1ccccc1)C(=O)N/N=C/c1cc2c(cc1Br)OCO2 (centres undefined)	35.5 µM [falling, single point]	
O=C(O)c1ccc(S(=O)(=O)NC2CCCCC2)cc1	3.16 µM [rising, partial curve]	
CCN(CC)C(=O)c1sc2c(c1C)c(=O)n(Cc1ccccc1)c(=O)n2Cc1ccc(Cl)cc1	3.16 µM [falling, partial curve]	
